Measured values taken from the supplement of paper PMC12823440, “Inhibitors supercharge kinase turnover through native proteolytic circuits” (Nature, 2025).
The list shows a part of the results. The calls rarely recur for the same compound in another form.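 Kinases were expressed as nanoluciferase fusions in K562 cells and luminescence was read every 4 h between 2 and 18 h as percent of control, DMSO set to 100% and a positive control to 0%. A time point counts as decreased when the signal drops significantly (2 sigma). The hit call is the authors' own, does not follow from the count of time points alone, and its rule is not shown.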

By UniProt entry, the sequences of proteins in these tests, tags left out. Where a name states a change or a piece, a line headed by the entry shows the natural chain unless it says otherwise.
UniProt P29317, whole entry: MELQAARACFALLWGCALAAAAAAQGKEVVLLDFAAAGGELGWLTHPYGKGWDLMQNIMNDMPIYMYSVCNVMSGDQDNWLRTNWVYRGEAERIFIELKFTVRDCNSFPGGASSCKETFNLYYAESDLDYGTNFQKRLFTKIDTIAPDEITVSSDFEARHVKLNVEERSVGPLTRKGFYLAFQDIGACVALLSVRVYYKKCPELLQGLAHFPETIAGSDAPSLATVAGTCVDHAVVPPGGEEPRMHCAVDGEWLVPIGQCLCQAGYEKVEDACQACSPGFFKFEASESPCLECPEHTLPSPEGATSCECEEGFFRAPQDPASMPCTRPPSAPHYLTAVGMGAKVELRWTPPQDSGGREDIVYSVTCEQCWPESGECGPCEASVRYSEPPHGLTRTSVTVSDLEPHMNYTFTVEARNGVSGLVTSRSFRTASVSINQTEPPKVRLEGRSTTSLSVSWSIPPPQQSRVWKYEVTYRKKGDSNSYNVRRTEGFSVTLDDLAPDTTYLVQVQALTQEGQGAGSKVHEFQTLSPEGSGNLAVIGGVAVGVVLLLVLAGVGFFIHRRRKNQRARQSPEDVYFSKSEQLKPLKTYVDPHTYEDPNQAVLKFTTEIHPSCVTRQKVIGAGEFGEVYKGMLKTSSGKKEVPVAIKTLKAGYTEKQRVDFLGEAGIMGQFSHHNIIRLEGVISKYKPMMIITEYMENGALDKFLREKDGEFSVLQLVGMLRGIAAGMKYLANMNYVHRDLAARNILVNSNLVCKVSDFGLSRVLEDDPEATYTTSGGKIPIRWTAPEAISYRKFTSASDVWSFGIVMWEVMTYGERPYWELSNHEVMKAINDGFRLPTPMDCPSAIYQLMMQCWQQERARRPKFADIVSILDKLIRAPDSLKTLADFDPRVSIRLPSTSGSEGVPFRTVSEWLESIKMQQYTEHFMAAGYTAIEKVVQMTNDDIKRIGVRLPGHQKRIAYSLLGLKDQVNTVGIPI
UniProt Q15303, whole entry R711C: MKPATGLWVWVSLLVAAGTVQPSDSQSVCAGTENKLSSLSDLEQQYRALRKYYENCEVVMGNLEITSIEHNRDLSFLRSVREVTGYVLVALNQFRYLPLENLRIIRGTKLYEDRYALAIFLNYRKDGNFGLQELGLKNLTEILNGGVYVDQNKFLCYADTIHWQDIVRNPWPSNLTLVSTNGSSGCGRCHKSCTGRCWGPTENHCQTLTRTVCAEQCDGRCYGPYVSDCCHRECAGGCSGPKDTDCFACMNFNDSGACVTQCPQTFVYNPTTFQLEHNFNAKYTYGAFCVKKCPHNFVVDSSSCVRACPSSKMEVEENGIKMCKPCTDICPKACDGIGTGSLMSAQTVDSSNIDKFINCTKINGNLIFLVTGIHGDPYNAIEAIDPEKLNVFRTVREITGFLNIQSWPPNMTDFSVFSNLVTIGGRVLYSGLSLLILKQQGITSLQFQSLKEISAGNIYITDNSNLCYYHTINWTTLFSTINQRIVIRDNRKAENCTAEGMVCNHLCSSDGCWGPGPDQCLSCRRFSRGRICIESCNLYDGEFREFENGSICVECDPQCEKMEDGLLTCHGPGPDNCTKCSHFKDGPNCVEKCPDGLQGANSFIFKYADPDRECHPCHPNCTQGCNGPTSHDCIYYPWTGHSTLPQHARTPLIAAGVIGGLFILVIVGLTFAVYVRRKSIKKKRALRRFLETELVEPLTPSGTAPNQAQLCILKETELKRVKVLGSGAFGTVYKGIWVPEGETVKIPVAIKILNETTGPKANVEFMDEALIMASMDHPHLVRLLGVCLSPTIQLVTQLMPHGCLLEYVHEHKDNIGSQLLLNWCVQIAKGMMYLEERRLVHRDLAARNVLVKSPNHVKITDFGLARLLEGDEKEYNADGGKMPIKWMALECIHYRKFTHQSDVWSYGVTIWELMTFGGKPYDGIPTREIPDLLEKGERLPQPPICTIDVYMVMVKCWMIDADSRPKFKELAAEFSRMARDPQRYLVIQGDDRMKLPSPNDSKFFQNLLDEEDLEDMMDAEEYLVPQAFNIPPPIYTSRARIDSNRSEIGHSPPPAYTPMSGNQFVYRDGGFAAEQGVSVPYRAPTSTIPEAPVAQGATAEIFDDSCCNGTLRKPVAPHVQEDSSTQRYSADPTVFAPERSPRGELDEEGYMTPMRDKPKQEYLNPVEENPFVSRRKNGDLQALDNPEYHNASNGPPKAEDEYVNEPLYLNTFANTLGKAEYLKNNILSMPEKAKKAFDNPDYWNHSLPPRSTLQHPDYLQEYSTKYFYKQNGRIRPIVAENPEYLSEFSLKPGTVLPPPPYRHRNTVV
UniProt O75460: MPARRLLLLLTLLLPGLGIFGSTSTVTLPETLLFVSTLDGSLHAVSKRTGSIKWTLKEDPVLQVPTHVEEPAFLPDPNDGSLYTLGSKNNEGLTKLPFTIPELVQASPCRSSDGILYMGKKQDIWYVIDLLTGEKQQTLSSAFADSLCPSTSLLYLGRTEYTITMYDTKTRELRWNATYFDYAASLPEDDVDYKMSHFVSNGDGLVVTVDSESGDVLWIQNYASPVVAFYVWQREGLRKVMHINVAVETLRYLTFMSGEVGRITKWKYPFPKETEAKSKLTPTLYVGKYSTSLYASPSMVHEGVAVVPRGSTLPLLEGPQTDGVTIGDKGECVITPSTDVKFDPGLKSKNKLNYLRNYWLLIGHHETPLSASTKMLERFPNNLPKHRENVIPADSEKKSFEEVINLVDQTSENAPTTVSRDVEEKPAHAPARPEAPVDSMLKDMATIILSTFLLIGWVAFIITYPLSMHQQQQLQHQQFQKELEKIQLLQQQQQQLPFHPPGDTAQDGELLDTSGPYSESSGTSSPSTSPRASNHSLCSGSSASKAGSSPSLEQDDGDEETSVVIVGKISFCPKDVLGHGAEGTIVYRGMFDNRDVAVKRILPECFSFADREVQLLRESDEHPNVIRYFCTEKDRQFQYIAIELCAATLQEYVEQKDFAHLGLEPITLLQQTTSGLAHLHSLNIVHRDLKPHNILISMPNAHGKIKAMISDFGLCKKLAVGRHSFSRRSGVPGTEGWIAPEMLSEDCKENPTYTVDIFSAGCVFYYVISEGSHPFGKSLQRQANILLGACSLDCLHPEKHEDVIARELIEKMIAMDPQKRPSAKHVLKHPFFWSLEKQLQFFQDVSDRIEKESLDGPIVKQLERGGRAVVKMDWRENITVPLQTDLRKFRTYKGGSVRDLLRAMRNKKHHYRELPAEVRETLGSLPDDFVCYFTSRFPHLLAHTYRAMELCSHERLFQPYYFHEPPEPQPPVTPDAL
UniProt P11362, whole entry, looked up: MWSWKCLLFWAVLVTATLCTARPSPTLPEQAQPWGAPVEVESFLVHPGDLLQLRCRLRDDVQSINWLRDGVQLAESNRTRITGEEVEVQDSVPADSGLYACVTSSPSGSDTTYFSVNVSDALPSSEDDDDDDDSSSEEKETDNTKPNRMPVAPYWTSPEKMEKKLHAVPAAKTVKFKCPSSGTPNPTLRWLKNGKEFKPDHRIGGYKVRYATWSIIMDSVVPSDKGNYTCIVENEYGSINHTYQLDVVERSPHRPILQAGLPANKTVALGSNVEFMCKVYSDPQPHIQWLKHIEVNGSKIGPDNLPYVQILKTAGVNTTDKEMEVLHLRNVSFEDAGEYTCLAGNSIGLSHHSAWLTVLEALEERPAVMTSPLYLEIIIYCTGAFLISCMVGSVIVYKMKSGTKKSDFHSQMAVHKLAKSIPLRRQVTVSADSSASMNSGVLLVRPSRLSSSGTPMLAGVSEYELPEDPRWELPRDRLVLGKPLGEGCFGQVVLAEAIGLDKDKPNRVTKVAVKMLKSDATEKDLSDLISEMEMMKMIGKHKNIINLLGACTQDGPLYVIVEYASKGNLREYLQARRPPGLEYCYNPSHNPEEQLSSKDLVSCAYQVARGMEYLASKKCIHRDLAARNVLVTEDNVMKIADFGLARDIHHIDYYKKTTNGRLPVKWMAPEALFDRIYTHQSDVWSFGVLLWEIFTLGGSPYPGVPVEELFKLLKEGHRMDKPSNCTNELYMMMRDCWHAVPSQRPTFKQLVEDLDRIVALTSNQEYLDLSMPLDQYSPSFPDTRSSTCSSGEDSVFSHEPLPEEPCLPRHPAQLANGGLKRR
UniProt P21802, whole entry, looked up: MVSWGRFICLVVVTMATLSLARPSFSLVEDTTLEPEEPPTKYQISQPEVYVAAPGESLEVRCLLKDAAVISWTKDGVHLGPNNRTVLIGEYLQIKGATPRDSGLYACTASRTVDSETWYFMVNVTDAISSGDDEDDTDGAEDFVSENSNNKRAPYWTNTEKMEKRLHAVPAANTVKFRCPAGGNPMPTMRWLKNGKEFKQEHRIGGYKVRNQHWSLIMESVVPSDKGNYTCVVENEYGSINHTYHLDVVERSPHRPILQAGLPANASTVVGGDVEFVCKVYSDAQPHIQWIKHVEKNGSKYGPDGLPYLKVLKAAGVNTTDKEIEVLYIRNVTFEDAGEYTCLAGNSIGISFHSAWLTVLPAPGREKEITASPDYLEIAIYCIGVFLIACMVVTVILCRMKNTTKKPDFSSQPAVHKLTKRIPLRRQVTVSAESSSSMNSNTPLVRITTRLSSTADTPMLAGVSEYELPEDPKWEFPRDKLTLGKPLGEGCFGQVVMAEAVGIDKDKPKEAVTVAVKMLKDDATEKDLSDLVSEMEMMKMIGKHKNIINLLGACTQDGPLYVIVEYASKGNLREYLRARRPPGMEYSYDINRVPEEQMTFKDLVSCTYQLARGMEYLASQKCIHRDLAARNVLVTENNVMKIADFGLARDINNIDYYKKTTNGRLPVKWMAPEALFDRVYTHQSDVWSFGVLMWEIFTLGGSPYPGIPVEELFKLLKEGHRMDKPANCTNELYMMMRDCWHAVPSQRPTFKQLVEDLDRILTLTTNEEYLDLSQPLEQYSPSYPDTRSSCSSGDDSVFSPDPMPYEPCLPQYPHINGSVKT
UniProt P22607, whole entry, looked up: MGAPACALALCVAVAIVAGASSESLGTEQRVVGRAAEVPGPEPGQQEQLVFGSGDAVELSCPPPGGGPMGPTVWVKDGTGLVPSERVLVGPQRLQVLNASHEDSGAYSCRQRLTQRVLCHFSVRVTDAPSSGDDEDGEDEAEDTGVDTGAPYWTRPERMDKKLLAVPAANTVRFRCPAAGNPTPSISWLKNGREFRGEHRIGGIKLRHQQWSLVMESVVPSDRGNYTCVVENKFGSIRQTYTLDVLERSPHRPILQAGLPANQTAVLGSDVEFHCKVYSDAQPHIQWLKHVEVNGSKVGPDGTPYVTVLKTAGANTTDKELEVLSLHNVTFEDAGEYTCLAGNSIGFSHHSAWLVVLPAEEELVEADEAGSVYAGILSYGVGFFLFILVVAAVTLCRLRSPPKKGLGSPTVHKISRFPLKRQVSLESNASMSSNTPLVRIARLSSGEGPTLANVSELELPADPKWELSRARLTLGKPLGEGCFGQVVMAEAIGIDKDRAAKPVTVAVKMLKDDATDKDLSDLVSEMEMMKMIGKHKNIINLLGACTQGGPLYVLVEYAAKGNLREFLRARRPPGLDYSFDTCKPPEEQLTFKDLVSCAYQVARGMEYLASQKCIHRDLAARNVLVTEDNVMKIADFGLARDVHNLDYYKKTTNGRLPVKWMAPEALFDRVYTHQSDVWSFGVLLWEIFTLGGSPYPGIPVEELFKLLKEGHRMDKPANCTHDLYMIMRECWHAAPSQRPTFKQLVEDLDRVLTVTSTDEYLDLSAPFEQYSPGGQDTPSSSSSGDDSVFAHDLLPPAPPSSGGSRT

Tests used:
Experiment in all cases: number of time points (of 5) at which kinase-Nluc abundance scored as decreased, DMSO-normalised (count); higher = more persistent destabilization
Conditions in all cases: K562; 2-18 h
[1] = biological target: EGFR_L861Q (UniProt P00533)
[2] = biological target: EGFR_T790M (UniProt P00533)
[3] = biological target: EPHA2 (UniProt P29317)
[4] = biological target: ERBB3 (UniProt P21860)
[5] = biological target: ERBB4_R711C (clone: ERBB4_mut) (UniProt Q15303)
[6] = biological target: ERN1 (UniProt O75460)
[7] = biological target: FGFR1 (UniProt P11362)
[8] = biological target: FGFR2 (UniProt P21802)
[9] = biological target: FGFR3 (UniProt P22607)
[10] = biological target: FGR (UniProt P09769)

Measured: number of time points

NC(=O)c1cnc2[nH]ccc2c1N[C@@H]1[C@@H]2CC3C[C@H]1C[C@@](O)(C3)C2 [Peficitinib] (10 µM)
3: [4] | [5] | [8]
2: [6]
4: [1]
0: all other assays above

C[C@@H]1CC(=O)c2c(ccc3c2C(=O)c2cccc(O)c2C3=O)C1 [Ochromycinone] (10 µM)
0: all assays above

CC(C)CCNC(=O)c1ccc2c(c1)nc(Nc1n[nH]c3ccc(-c4ccccc4OC(F)(F)F)cc13)n2C1CCC(O)CC1 (stereo not drawn) [IRAK inhibitor 4 (trans)] (10 µM)
0: all assays above

O[C@@H]1CO[C@H]2[C@@H]1OC[C@H]2Oc1nc2nc(-c3ccc(-c4ccccc4)cc3)c(Cl)cc2[nH]1 (10 µM)
1: [4] | [5]
0: all other assays above

Cc1cccc(-c2[nH]c(C(C)(C)C)nc2-c2ccc3nccnc3c2)n1 (10 µM)
0: all assays above

C=CC(=O)N1C(=O)CC(c2ccc(F)cc2)Sc2ccccc21 (stereo not drawn) [GSK-3β inhibitor 3] (10 µM)
2: [8]
0: all other assays above

CCCNC(=O)Nc1ccc(Oc2ncnc3cc(OC)c(OC)cc23)cc1Cl (2.5 µM)
0: all assays above

CCOC(=O)N1C/C(=C/c2ccccc2F)C(=O)/C(=C\c2ccccc2F)C1 (2.5 µM)
0: all assays above

O=C1NC(=O)C(c2cnc3ccccn23)=C1c1cn2c3c(cc(F)cc13)CNCC2 [GSK-3 inhibitor 1] (2.5 µM)
0: all assays above

O=C(Nc1nc2ccccc2[nH]1)c1cccc([N+](=O)[O-])c1 [IRAK-4 protein kinase inhibitor 2] (10 µM)
0: all assays above

Cc1ccc(NC(=O)c2ccnc(C(F)(F)F)c2)cc1-c1cc(OCCO)nc(N2CCOCC2)c1 (10 µM)
0: all assays above

Arranged by length of the SMILES (descending): some entries from above.
Cc1ccc(NC(=O)c2ccnc(C(F)(F)F)c2)cc1-c1cc(OCCO)nc(N2CCOCC2)c1 (10 µM)
0: all assays above

O=C1NC(=O)C(c2cnc3ccccn23)=C1c1cn2c3c(cc(F)cc13)CNCC2 [GSK-3 inhibitor 1] (2.5 µM)
0: all assays above

CCOC(=O)N1C/C(=C/c2ccccc2F)C(=O)/C(=C\c2ccccc2F)C1 (2.5 µM)
0: all assays above

Further records follow:

O=[N+]([O-])c1ccc(Nc2nc(N3CCOCC3)nc(N3CCOCC3)n2)cc1 (10 µM)
0: all assays above

CC/C(=N\NC(=O)c1ccnc(NCCCN2CCOCC2)c1)c1ccc(Cl)cc1O (2.5 µM)
0: all assays above

COc1cc2ncnc(Nc3ccc(F)c(Cl)c3)c2cc1NC(=O)/C=C/CN1CCCCC1 [Dacomitinib] (10 µM)
0: all assays above

O=C(Nc1nc2ccc(NC(=O)C34CC5CC(CC(C5)C3)C4)cc2s1)c1ccccc1 (10 µM)
0: all assays above

O=C(NC1CCOCC1)c1ccc(-c2cc(-c3c[nH]nc3-c3ccccn3)ccn2)cc1 (10 µM)
0: all assays above

COc1cc(-c2cn[nH]c2)ccc1C(=O)Nc1ccc2c(c1)CCNCC2 (10 µM)
0: all assays above

O=C(CNc1cccc(Cl)c1)NC1CCCN(c2ncnc3[nH]ccc23)C1 (stereo not given) (10 µM)
0: all assays above

Cn1ncc2cc(-c3cnc(N)c(Cl)c3N3CCC4(CCNC4=O)CC3)ccc21 (10 µM)
0: all assays above

CC(C)=CC(=O)O[C@H]1Cc2cc3ccc(=O)oc3cc2OC1(C)C [Decursin] (10 µM)
0: all assays above

O=C1/C(=C\c2ccc(Cl)cc2)C=C(c2ccccc2)N1c1ccc(O)cc1 (2.5 µM)
0: all assays above

CNc1cc(Nc2cccn(-c3ccccn3)c2=O)nn2c(C(=O)N[C@@H]3C[C@@H]3F)cnc12 (2.5 µM)
0: all assays above

O=C1O[C@H]([C@@H](O)CO)C(O)=C1OP(=O)(O)O [2-Phospho-L-ascorbic acid (trisodium)] (10 µM)
2: [7]
0: all other assays above

CC(C)c1cccc(C(C)C)c1N1C(=O)c2ccc(N)cc2C1=O (2.5 µM)
0: all assays above

Cn1cnc([N+](=O)[O-])c1C[N+](C)(C)C/C=C/C(=O)Nc1cc2c(Nc3ccc(Cl)c(Br)c3)ncnc2cn1 [Tarloxotinib (bromide)] (10 µM)
0: all assays above

Cn1cc(-c2cnc3cnn(S(=O)(=O)c4cnc5ccc(-c6cnn(C)c6)cn45)c3c2)cn1 [Glumetinib] (10 µM)
0: all assays above

CN1C(=O)[C@@H](NC(=O)c2n[nH]c(Cc3ccccc3)n2)COc2ccccc21 (10 µM)
0: all assays above

CNC(=O)c1ccccc1Oc1nc(Nc2cc(OC)c(OC)c(OC)c2)ncc1Br (2.5 µM)
0: all assays above

Nc1nc(N)c2nc(-c3cccc(O)c3)cnc2n1 (10 µM)
0: all assays above

CCCCCCCCCCCCCCCCOP(=O)([O-])OCC[N+](C)(C)C [Miltefosine] (10 µM)
0: all assays above

CC(=O)N1CCC(c2cc(-c3ccc(NC(=O)c4cccn(-c5ccc(F)cc5)c4=O)cc3F)c3c(N)ncnn23)CC1 (0.5 µM)
0: all assays above

COc1cc(N2CCOCC2)ccc1Nc1ncc(Cl)c(Nc2ccccc2NS(C)(=O)=O)n1 (2.5 µM)
0: all assays above

c1cc(NC2CCNCC2)nc(-c2cnc3ccccn23)c1 [IRAK inhibitor 1] (10 µM)
0: all assays above
